{"source": "patent US11912664B2", "about": "“Determining small molecule-protein and protein-protein interactions” (President and Fellows of Harvard College, priority 2017, dated 2024)", "test_system": "NF-κB pathway", "assay": "Luciferase reporter assay for NF-κB pathway", "type": "cell-based, human", "conditions": "NF-κB-RE-luc2P HEK293 cells, 5 μM, TNF-α titration", "note": "At least one compound was matched to its structure with a doubt left."}
{"smiles": "Cc1ccc(-c2cc(C(F)(F)F)nn2-c2ccc(S(N)(=O)=O)cc2)cc1", "note": "[celecoxib (2), celecoxib, reference compound]", "values": [{"measurement": "inhibition of the NF-κB pathway (in words)", "result": "revalidated"}]}
